Measured values published in US12171231B2, “Oxadiazole compounds or salts thereof, agrohorticultural fungicides containing the compounds, and methods of using the same” (NIHON NOHYAKU CO., LTD., priority 2019, dated 2024).
Some results were stated once for a whole list of compounds, not compound by compound.

System: soybean rust (Phakopsora pachyrhizi)
Test: Fungicidal efficacy test for soybean rust
Assay type: in vivo
Conditions: treatment concentration 50 ppm; foliage spray on potted soybeans (Enrei, 2-leaf stage) before spore inoculation; assessed after about 10 days in greenhouse

## CCCC(=O)NC(OC)c1ccc(-c2noc(C(F)(F)F)n2)s1 (stereo not shown) [Compound 1-13, N-(methoxyl{5-[5-(trifluoromethyl)-1,2,4-oxadiazol-3-yl]thiophen-2-yl}methyl)butylamide]
  control value (assessment criteria 0-10): 8 (Control value 80-89%)
